Compound in the test: Nc1nc2c(ncn2[C@@H]2O[C@H](COP(=O)(O)OP(=O)(O)OP(=O)(O)O)[C@@H](O)[C@H]2O)c(=O)[nH]1 [guanosine triphosphate]
Nature of the test: NP40-soluble protein abundance relative to vehicle (solubility fold change) (ratio); higher = more soluble protein in presence of GTP. How it is done:
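Solubility proteome profiling in Jurkat crude lysate. Lysate was treated with Mg-GTP (0.1-10 mM) for 10 min at room temperature and 3 min at 37 °C, then solubilised with 0.8% NP40 and benzonase, followed by ultracentrifugation. Proteins were quantified by TMT10 LC-MS/MS; the value is the NP40-soluble abundance relative to the NP40-processed vehicle, from 3 independent experiments.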

Protein sequences, listed by entry. Tags and fused reporters are not part of them. Lines headed by an entry give the natural chain unless they say otherwise; changes in a name come on top.
UniProt O15067: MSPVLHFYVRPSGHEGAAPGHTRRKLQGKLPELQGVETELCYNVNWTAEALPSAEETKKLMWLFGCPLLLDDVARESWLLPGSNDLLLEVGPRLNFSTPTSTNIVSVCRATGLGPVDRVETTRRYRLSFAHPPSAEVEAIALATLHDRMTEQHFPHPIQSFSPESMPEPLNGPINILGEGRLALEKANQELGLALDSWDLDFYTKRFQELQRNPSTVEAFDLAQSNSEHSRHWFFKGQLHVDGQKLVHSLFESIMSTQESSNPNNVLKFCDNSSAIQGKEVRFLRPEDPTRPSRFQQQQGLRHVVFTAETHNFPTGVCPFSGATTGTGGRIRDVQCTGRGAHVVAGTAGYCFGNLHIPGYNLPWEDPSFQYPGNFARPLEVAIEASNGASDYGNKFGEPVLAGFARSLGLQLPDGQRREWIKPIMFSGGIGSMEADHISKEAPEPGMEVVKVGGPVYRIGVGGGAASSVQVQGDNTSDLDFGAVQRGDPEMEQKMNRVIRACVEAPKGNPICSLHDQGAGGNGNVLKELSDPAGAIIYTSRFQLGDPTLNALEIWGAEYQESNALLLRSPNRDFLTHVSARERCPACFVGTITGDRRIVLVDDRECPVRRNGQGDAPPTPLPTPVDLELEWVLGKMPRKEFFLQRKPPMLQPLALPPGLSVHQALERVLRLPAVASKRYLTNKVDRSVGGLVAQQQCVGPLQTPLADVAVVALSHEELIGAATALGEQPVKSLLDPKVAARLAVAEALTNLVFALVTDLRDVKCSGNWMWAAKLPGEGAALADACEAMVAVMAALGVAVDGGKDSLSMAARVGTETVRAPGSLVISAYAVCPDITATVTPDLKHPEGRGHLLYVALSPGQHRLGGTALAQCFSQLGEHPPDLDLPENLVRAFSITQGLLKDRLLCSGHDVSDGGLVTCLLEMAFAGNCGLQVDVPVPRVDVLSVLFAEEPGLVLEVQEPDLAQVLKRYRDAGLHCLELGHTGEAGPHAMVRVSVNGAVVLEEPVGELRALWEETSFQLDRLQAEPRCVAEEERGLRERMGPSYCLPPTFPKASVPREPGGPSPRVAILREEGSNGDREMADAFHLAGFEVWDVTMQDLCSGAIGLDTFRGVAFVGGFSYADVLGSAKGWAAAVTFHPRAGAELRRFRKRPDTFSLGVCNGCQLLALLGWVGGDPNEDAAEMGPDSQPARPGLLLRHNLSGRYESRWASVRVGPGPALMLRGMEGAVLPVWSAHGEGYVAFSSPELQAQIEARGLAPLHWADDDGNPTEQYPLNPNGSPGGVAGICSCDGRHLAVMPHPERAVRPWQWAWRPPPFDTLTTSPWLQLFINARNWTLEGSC
UniProt O00418: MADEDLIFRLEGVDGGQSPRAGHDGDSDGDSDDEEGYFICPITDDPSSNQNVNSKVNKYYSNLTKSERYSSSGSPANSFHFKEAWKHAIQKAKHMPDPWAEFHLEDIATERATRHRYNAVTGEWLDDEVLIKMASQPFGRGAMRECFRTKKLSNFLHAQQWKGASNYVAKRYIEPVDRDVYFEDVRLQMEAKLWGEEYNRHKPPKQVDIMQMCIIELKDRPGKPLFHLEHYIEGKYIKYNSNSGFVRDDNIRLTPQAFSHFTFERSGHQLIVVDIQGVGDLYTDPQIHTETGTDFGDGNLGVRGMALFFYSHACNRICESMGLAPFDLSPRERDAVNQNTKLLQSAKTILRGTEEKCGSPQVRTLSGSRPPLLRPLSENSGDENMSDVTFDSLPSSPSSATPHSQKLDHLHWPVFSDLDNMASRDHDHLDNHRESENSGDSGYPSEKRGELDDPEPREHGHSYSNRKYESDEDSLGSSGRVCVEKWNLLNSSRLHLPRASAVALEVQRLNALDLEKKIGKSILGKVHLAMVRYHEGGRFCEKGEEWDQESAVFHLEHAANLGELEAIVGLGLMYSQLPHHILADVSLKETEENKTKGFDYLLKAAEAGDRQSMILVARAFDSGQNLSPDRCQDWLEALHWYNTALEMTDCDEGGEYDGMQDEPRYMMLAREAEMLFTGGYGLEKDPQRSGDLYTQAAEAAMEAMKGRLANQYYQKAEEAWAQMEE
UniProt O00165, whole entry: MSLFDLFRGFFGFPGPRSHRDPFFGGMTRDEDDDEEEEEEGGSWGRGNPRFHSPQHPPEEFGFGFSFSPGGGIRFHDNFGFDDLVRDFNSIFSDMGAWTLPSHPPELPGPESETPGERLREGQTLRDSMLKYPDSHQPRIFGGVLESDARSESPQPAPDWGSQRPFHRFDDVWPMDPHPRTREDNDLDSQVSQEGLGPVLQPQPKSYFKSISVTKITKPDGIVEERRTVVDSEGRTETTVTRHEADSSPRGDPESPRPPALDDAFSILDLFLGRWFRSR
UniProt Q15642: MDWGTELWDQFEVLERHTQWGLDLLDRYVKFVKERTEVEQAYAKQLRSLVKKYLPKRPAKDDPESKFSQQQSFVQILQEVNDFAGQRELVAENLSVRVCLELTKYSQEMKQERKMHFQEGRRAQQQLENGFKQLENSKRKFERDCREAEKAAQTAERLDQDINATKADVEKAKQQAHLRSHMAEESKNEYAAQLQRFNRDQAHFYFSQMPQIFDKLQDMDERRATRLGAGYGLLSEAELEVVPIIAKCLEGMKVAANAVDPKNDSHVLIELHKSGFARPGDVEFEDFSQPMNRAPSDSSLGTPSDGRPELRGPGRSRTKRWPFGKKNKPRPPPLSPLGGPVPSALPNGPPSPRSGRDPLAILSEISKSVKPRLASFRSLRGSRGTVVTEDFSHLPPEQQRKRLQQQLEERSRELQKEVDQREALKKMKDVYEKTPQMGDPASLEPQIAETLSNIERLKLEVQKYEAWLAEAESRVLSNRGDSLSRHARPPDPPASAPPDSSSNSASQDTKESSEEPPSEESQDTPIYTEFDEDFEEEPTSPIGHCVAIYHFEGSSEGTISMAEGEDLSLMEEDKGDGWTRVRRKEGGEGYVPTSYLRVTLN
UniProt Q8TBC3: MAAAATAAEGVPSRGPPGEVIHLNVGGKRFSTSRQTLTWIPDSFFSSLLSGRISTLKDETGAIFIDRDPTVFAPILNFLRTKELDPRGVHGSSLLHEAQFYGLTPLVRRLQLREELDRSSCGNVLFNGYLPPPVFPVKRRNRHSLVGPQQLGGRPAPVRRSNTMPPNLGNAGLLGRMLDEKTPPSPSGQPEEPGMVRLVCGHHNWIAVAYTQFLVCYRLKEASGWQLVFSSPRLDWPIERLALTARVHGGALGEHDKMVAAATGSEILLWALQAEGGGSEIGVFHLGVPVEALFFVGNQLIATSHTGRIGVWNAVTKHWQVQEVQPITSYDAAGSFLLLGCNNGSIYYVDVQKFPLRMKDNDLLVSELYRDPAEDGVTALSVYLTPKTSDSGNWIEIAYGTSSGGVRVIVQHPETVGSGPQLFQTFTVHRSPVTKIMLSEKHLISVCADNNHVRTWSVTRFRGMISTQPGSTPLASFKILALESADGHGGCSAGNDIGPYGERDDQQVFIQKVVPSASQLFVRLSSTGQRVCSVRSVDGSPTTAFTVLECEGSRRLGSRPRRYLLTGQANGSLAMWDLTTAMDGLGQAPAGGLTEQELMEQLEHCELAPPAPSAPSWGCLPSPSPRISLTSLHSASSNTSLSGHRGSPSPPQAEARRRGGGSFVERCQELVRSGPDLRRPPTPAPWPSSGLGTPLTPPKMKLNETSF

± gives the standard deviation of the averaged measurements. This is one part of the list.

In the case of PFAS (UniProt O15067), the NP40-soluble protein abundance came to 1.03 ± 0.022 (concentration: 0.1mM); 1.01 ± 0.031 (concentration: 0.5mM); 0.984 ± 0.022 (concentration: 1mM); 0.946 ± 0.026 (concentration: 2mM); 0.943 ± 0.027 (concentration: 4mM); 0.922 ± 0.026 (concentration: 6mM). Also, the NP40-soluble protein abundance by setting is: (concentration: 8mM) 0.927 ± 0.012; (concentration: 10mM) 0.891 ± 0.041.

On to EEF2K (UniProt O00418), for which the NP40-soluble protein abundance (concentration: 0.1mM) was determined as 0.988 ± 0.074; the NP40-soluble protein abundance (concentration: 0.5mM) was found to be 1.01 ± 0.058; the NP40-soluble protein abundance (concentration: 1mM) worked out at 0.944 ± 0.02; the NP40-soluble protein abundance (concentration: 2mM) worked out at 0.954 ± 0.044; the NP40-soluble protein abundance (concentration: 4mM) amounted to 0.913 ± 0.028; the NP40-soluble protein abundance (concentration: 6mM) turned out to be 0.951 ± 0.052. Further, the NP40-soluble protein abundance runs as follows: (concentration: 8mM) 0.949 ± 0.068; (concentration: 10mM) 0.941 ± 0.039.

Take UniProt O00165-5: the NP40-soluble protein abundance was 1.06 ± 0.055 (concentration: 0.1mM); 1.12 ± 0.04 (concentration: 0.5mM); 1.14 ± 0.088 (concentration: 1mM); 1.17 ± 0.055 (concentration: 2mM); 1.18 ± 0.098 (concentration: 4mM); 1.16 ± 0.08 (concentration: 6mM). The NP40-soluble protein abundance was determined as 1.2 ± 0.14 (concentration: 8mM) and 1.17 ± 0.12 (concentration: 10mM).

Consider “M0R0F9 and related entries (UniProt Q15642)”, for which the NP40-soluble protein abundance by setting is: (concentration: 0.1mM) 0.909 ± 0.067; (concentration: 0.5mM) 0.855 ± 0.029; (concentration: 1mM) 0.872 ± 0.08; (concentration: 2mM) 0.859 ± 0.024; (concentration: 4mM) 0.846 ± 0.041; (concentration: 6mM) 0.877 ± 0.04. Further, the NP40-soluble protein abundance (concentration: 8mM) amounted to 0.87 ± 0.058 and the NP40-soluble protein abundance (concentration: 10mM) is 0.8 ± 0.021.

Turning to “M0R0S1 and related entries (UniProt Q8TBC3)”, the NP40-soluble protein abundance (concentration: 0.1mM) was 0.889 ± 0.19; the NP40-soluble protein abundance (concentration: 0.5mM) is 1.02 ± 0.013; the NP40-soluble protein abundance (concentration: 1mM) came to 1.07 ± 0.15; the NP40-soluble protein abundance (concentration: 2mM) was 1.07 ± 0.086; the NP40-soluble protein abundance (concentration: 4mM) amounted to 1.14 ± 0.11; the NP40-soluble protein abundance (concentration: 6mM) is 1.19 ± 0.11. Moreover, the NP40-soluble protein abundance was determined as 1.24 ± 0.029 (concentration: 8mM) and 1.16 ± 0.12 (concentration: 10mM).

The record behind these values is the supplement of paper PMC6411743.
